# Experimental data from PubChem BioAssay AID1671190 (National Center for Advancing Translational Sciences (NCATS), 2021).
# Amino acid sequences for entries named in this document (tags omitted). A change or cut given only in a name is not applied to a line headed by its entry.
# UniProt P18054: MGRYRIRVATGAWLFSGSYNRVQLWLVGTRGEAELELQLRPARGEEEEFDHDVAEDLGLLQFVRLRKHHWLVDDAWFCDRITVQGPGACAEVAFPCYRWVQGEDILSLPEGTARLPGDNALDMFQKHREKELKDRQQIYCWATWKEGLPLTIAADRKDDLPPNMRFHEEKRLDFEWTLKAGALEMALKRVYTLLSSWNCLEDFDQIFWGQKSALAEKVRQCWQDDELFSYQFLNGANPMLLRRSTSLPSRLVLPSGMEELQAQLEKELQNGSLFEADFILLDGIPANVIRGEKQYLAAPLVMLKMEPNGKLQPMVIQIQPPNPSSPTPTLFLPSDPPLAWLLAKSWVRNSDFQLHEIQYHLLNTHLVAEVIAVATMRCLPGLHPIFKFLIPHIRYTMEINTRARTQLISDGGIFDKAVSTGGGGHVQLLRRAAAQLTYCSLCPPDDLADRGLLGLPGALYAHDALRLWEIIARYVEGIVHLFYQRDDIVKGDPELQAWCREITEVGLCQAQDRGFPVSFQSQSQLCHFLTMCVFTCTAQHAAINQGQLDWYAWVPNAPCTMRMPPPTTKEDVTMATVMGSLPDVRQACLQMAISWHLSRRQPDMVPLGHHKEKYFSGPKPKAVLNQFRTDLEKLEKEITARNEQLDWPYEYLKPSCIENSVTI
# Hit rate of the full screen: of about 580,000 compounds, about 6,100 (1.1%) were called active. This list was built around the results that the source calls inconclusive (neither active nor inactive); the mix of calls is not that of the screen. The call rests on the fitted dose curve; in most records, active means well fitted inhibition curve with a large enough effect; inconclusive means small, poorly fitted or top-dose-only effect, or another doubt; inactive means no such curve, though single readings can be large or run the other way. Potencies of inconclusive entries are doubtful fits and often do not repeat.
# Molecular target: Polyunsaturated fatty acid lipoxygenase ALOX12 (Homo sapiens) (UniProt P18054)
# Assay: Primary qHTS assay for inhibitors of human arachidonate 12S-lipoxygenase (ALOX12): Round 2
# Conditions: purified 12hLO, xylenol orange hydroperoxide absorbance; activity change, negative = inhibition: at 108 µM (top of the series) unless noted
# Method in brief: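 Hydroperoxide product was detected by ferrous iron/xylenol orange as the 573 to 405 nm absorbance ratio. Arachidonic acid at 40 uM (final) was turned over for 30 min at room temperature by 150 nM human 12hLO, pH 7.0 Hepes buffer, after 15 min compound preincubation.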
# On the % scale 0 is the no-effect control and ±100 the full control effect; potency means the concentration at half of the fitted maximal effect.
Compound,Potency,"activity change, negative = inhibition"
Cc1cnc(C(=O)N2CCC(c3noc(-c4cnccn4)n3)C2)cn1 (configuration not stated),inactive,
CC12CCC3c4ccc(O)cc4CCC3C1CCC2O (configuration not stated),inactive,
CN1CCN(c2ccc3ncc(Nc4ccc(Cl)c(C(F)(F)F)c4)n3n2)CC1,"inconclusive: 70.8 µM [inhibitor, partial curve]",
Cc1cccn2c(=O)c3cc(C#N)c(=NC(=O)c4ccco4)n(Cc4ccco4)c3nc12,"inconclusive: 100 µM [inhibitor, single point]",
CCOC(=O)c1scc(-c2ccccc2)c1S(=O)(=O)Nc1ccc(N(C)C)cc1,"inconclusive: 20 µM [inhibitor, full curve, poor fit]",
Cc1cccc(-n2c(-c3ccco3)n[nH]c2=S)c1,"inconclusive: 89.1 µM [inhibitor, partial curve, poor fit]",
Cc1nc2cnc(N3CCN(C)CC3)nc2n(C)c1=O,"inconclusive: 44.7 µM [inhibitor, partial curve, poor fit]",
CC(=O)c1ccc(NC(=O)C[n+]2cccc(C)c2)cc1,inactive,
Cc1ccc2c(=O)cc(C(=O)Nc3ccc(S(N)(=O)=O)cc3)oc2c1C,"inconclusive: 50.1 µM [inhibitor, partial curve]",
COc1ccc2c(c1)CSC(c1ccccc1)C2=O (configuration not stated),active: 35.5 µM,
COc1ccc(N(CC(=O)N2c3ccccc3CC2C)S(=O)(=O)c2c(C)nn(C)c2C)cc1 (configuration not stated),"inconclusive: 112 µM [inhibitor, single point]",
CN(Cc1ccc(Cl)s1)C(=O)CSc1nnc(COc2ccccc2Cl)n1C,inactive,
CC(C)c1[nH]nc2c1C(c1cccc(C(F)(F)F)c1)N(Cc1ccccc1)C2=O (configuration not stated),"inconclusive: 89.1 µM [inhibitor, single point]",
CC(C)Cn1c(N)c(C(=O)CSc2ccc3c(c2)OCCO3)c(=O)n(C)c1=O,inactive,
CCOC(=O)c1c(NC(=O)c2cccs2)sc2c1CCC2,inactive,
COCCN(CCOC)c1nc(N)c2c(N)nc3c(c2c1C#N)CC(=O)N3Cc1ccc(Cl)cc1,"inconclusive: 6.31 µM [inhibitor, full curve, poor fit]",
Cc1noc(-c2ccc(OC3CN(S(=O)(=O)c4c(C)nn(C)c4C)C3)cc2)n1,inactive,
COc1ccc(-n2c(-c3ccc(C)cc3)n[nH]c2=S)cc1,"inconclusive: 50.1 µM [inhibitor, partial curve, poor fit]",
Cc1cccc(NC(=O)CSc2nnc(-c3ccco3)c(-c3ccco3)n2)c1,"inconclusive: 44.7 µM [inhibitor, partial curve, poor fit]",
COc1ccccc1-c1nc(=S)c(C(C)=O)c(C)[nH]1,"inconclusive: 70.8 µM [inhibitor, partial curve, poor fit]",
Cc1cc(=O)[nH]c(SCc2nnc(-c3ccccc3)o2)n1,inactive,
COC(=O)c1ccc(/C=N/NC(=O)C(=O)NCc2ccccc2)cc1,"inconclusive: 112 µM [inhibitor, partial curve, poor fit]",
CCN(CC(=O)Nc1c(F)cccc1F)C(=O)CN1C(=O)c2ccccc2C1=O,inactive,

Compound,Potency,"activity change, negative = inhibition"
CN1CCC(N(C)S(=O)(=O)c2ccc(NC(=O)c3ccc(S(=O)(=O)N(C)C)cc3)cc2)CC1,"inconclusive: 50.1 µM [inhibitor, partial curve, poor fit]",
Cc1cc(Nc2cccc(Br)c2)c2ccccc2n1,"inconclusive: 89.1 µM [inhibitor, partial curve, poor fit]",
CCCCCCn1c(=O)n2n(c1=O)C[C@]1(OC(=O)NCC3CCCCC3)CN(S(=O)(=O)c3ccc(C)cc3)C[C@]1(O)C2,"inconclusive: 50.1 µM [inhibitor, partial curve, poor fit]",
Cc1ccccc1NC(=O)c1c(C)oc2ccc(O)c(CN3CCC(C)CC3)c12,,inconclusive: -42.6% [inhibitor]
Cc1ccc(C(NC(=O)C2CCN(CCOc3ccc(Cl)cc3)CC2)c2ccccn2)cc1 (configuration not stated),"inconclusive: 44.7 µM [inhibitor, partial curve, poor fit]",
CC(CCc1ccccc1)NC(=O)c1ccc[n+]([O-])c1 (configuration not stated),inactive,
CN(C)c1ncc2nc(CCc3ccccc3)c(=O)n(C3CC3)c2n1,"inconclusive: 1 µM [inhibitor, full curve, poor fit]",
CCc1nnc(NC(=O)C(=O)NCCOC(=O)c2ccccc2)s1,"inconclusive: 1.58 µM [inhibitor, partial curve, poor fit]",
O=c1c(-c2ccccc2)nnc2sc(-c3ccccc3)nn12,inactive,
COC(=O)c1ccc2c(=O)n(Cc3ccco3)c(SCC(=O)Nc3cc(C)on3)nc2c1,inactive,
C[C@@H]1CN(C(=O)c2ccco2)C[C@H]1c1nc(-c2ccccc2)no1,inactive,
Cc1ccc(C)c(OCCn2cnc3c2c(=O)n(C)c(=O)n3C)c1,inactive,
O=C(O)c1cc([N+](=O)[O-])ccc1OC(F)F,"inconclusive: 141 µM [inhibitor, partial curve, poor fit]",
COc1ccc(NC(=O)c2cnn(-c3ccc(F)cc3F)c2C2CCN(C(=O)OC(C)(C)C)CC2)cc1Cl,inactive,
COc1ccccc1N1CCN(C(=O)CCc2c[nH]c3ccccc23)CC1,"inconclusive: 56.2 µM [inhibitor, single point]",
CC(C)CCNC(=O)c1ccc(OC2CCN(S(=O)(=O)N(C)C)CC2)cc1,inactive,
COc1cc(OC)c(OC)cc1CCC(C)NCCC(c1ccccc1)c1ccccc1 (configuration not stated),"inconclusive: 50.1 µM [inhibitor, partial curve, poor fit]",
O=C(/C=C/c1cc2ccccc2nc1N1CCOCC1)c1ccccc1F,"inconclusive: 6.31 µM [inhibitor, full curve, poor fit]",
Cc1cccc(SCc2nc3c(c(=O)[nH]c(=O)n3C)n2C)c1,"inconclusive: 39.8 µM [inhibitor, partial curve, poor fit]",
Cc1ccc2c(CN3CCN(CCc4ccccn4)CC3)cc(=O)oc2c1,"inconclusive: 35.5 µM [inhibitor, partial curve, poor fit]",
CCC(=O)N1CCN(c2ccccc2NC(=O)COc2cccc(C)c2)CC1,"inconclusive: 15.8 µM [inhibitor, partial curve, poor fit]",
CN(C)c1ccc(C(=O)NC[C@H]2O[C@@H](CO)[C@@H](O)[C@H]2N2CCN(c3ccccc3)CC2)cc1,"inconclusive: 15.8 µM [inhibitor, full curve]",
COc1ccc(C(=O)NCCCOC(C)C)cc1OC1CCN(C(C)=O)CC1,"inconclusive: 79.4 µM [inhibitor, single point]",

Compound,Potency,"activity change, negative = inhibition"
Cc1ccc(NC(=O)Nc2cc(-c3ccccc3)nn2C)cc1Cl,"inconclusive: 126 µM [inhibitor, partial curve, poor fit]",
CCN1CCN(c2oc(-c3cccc(Cl)c3)nc2C#N)CC1,inactive,
CCOC(=O)c1sc(=S)n(-c2ccc3c(c2)OCO3)c1N,"inconclusive: 50.1 µM [inhibitor, partial curve, poor fit]",
O=C(CSC1=NS(=O)(=O)c2ccccc2N1)Nc1cccc(F)c1,"inconclusive: 22.4 µM [inhibitor, partial curve, poor fit]",
CN1/C(=C\C=C(/C#N)C(=O)Nc2ccc(Cl)cc2)C(C)(C)c2ccccc21,inactive,
CC(C)C(=O)Nc1ccc(C(=O)NCc2cccnc2)cc1,"inconclusive: 31.6 µM [inhibitor, partial curve, poor fit]",
FC(F)Sc1nnc(-c2ccccc2)c2ccccc12,"inconclusive: 39.8 µM [inhibitor, partial curve, poor fit]",
O=C(NCc1ccc(Cl)nc1)c1ccc2ccnn2c1,inactive,
Cc1ccc(S(=O)(=O)N2c3cc(C)ccc3OCC2C(C)(C)C)cc1 (configuration not stated),inactive,
C/C(=N\NC(=O)c1cc(O)cc(O)c1)c1ccc(NC(=O)Cc2ccccc2)cc1,"inconclusive: 89.1 µM [inhibitor, partial curve, poor fit]",
CCN(CC)C(=S)SCC(=O)c1ccc(Br)cc1,"inconclusive: 89.1 µM [inhibitor, partial curve, poor fit]",
Cn1ccc(NC(=O)c2ccc([N+](=O)[O-])cc2)n1,"inconclusive: 3.98 µM [inhibitor, full curve, poor fit]",
CN(CCCCCCN(C)Cc1ccccc1O)Cc1ccccc1O,"inconclusive: 0.562 µM [inhibitor, full curve, poor fit]",
Nc1n[nH]c(N)c1N=Nc1ccc2c(c1)OCO2,"inconclusive: 112 µM [inhibitor, single point]",
Cc1ccc2nc(C)c(C(=O)N(C)C(C)c3ccccc3)cc2c1 (configuration not stated),"inconclusive: 112 µM [inhibitor, single point]",
OC(COCc1ccc2c(c1)OCO2)CN1CCN(Cc2ccccc2)CC1 (configuration not stated),"inconclusive: 50.1 µM [inhibitor, partial curve, poor fit]",
Nc1nccnc1C(=O)NCc1ccc(F)cc1,inactive,
C[C@@H]1CN([C@H](C)CO)S(=O)(=O)c2ccc(C#Cc3ccccc3F)cc2O[C@@H]1CN(C)C(=O)Cc1ccccc1,"inconclusive: 17.8 µM [inhibitor, partial curve, poor fit]",
Cc1ccc(SCc2ccc(C(=O)Nc3ccccc3C(C)C)cc2)cc1,"inconclusive: 141 µM [inhibitor, partial curve, poor fit]",
Cc1ccc(C2=CC(=O)CC(C)(C)C2=O)cc1,inactive,
ClC(Cl)(Cl)C1=NC(C(Cl)(Cl)Cl)N=C(c2ccccc2)N1 (configuration not stated),"inconclusive: 44.7 µM [inhibitor, partial curve]",

# Copied from the list.
# Value of CCN(CC)C(=S)SCC(=O)c1ccc(Br)cc1 under Potency: inconclusive: 89.1 µM [inhibitor, partial curve, poor fit]
# Value of OC(COCc1ccc2c(c1)OCO2)CN1CCN(Cc2ccccc2)CC1 (configuration not stated) under Potency: inconclusive: 50.1 µM [inhibitor, partial curve, poor fit]
# Value of Cc1ccc2nc(C)c(C(=O)N(C)C(C)c3ccccc3)cc2c1 (configuration not stated) under Potency: inconclusive: 112 µM [inhibitor, single point]
